From paper PMC4066780
Results are given in words; binding and its absence hold for the method and conditions named. In cells and extracts the contact can be indirect. Sequences can lack the tags named with a protein.

Sequences of proteins named here, by UniProt entry; tags and fusion partners are left off.
UniProt P63242: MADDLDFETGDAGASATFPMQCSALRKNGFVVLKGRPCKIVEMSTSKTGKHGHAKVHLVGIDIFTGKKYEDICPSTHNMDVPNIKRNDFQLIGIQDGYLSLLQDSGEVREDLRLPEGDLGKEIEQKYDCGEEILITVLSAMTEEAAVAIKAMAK

Target: T1, FLAG-tagged QKI-6 (quaking I isoform 6) (UniProt Q9QYS9)
T1 sequence: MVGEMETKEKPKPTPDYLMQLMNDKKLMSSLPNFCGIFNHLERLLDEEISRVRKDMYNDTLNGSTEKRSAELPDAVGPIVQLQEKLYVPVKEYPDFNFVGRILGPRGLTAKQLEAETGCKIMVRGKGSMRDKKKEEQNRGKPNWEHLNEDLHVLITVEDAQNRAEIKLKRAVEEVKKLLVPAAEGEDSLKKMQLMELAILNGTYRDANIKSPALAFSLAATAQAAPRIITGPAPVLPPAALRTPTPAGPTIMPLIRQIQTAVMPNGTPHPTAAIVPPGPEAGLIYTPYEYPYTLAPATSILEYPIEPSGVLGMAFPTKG
Assay: co-IP; UV cross-linked (400 mJ) brain stem of FLAG-QKI-6 transgenic mice; cytoplasmic lysate (20 mM Tris pH 7.5, 100 mM KCl, 5 mM MgCl2, 0.5% Triton X) with 0.01% SDS; anti-Flag-M2 beads overnight at 4°C; immunoblot of the immunoprecipitate

“eIF5α (housekeeping protein) (from UniProt P63242 1-154)” was tested, and the binding was “no binding”.
